Experimental data: PubChem BioAssay AID1259254 (NCATS, 2017)

Test: 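Finding genes that stop cells copying their DNA twice in one cycle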 (primary screen)
Cells: human HCT116 colorectal cancer cells
Reagents: single siRNA against human genes
Timing: 3 days
Read-out: 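Imaged Hoechst DNA stain sorts each cell into a cycle phase by DNA amount; per plate, G2 fraction set to 0% for non-targeting and 100% for GMNN siRNA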
Scale: G2 robust z-score and G2 cells, % of GMNN control: higher = more G2 cells, more excess DNA replication
Rule for the call: 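An siRNA counts as active if its G2 robust z-score lies at least 5 MADs above the screen median; here such calls match roughly 38% of GMNN control or more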
In all, the deposit lists about 59,000 reagents; this is an unselected part. Of all reagents, about 1,550 (2.6%) are marked active. 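G2 share is only a proxy for re-replication; each gene was hit by three separate siRNAs, and active genes were retested.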 Entries without a mark were called inactive. The numbers tell different reagents against one gene apart. Further read-outs or replicates are left out here. The record does not give: the amount of reagent.

NUDT17 (nudix hydrolase 17) #1 showed G2 robust z-score 4.68; G2 cells, % of GMNN control 35.9.
After knock-down of NUDT17 (nudix hydrolase 17) #2, the screen gave G2 robust z-score 1.57; G2 cells, % of GMNN control 14.
Silencing of NUDT17 (nudix hydrolase 17) #3 resulted in: G2 robust z-score 2.06; G2 cells, % of GMNN control 17.4.
For DNM2 (dynamin 2) #1, the entry reads G2 robust z-score -1.35; G2 cells, % of GMNN control -6.51.
For DNM2 (dynamin 2) #2, the entry reads G2 robust z-score 1.42; G2 cells, % of GMNN control 13.
Silencing of DNM2 (dynamin 2) #3 resulted in: G2 robust z-score 1.85; G2 cells, % of GMNN control 16.
With knock-down of SNRNP48 (small nuclear ribonucleoprotein U11/U12 subunit 48) #1 the results were G2 robust z-score -0.839; G2 cells, % of GMNN control -2.94.
SNRNP48 (small nuclear ribonucleoprotein U11/U12 subunit 48) #2 scored G2 robust z-score -0.188; G2 cells, % of GMNN control 1.65.
SNRNP48 (small nuclear ribonucleoprotein U11/U12 subunit 48) #3 gave G2 robust z-score -0.674; G2 cells, % of GMNN control -1.77.
After knock-down of PCOLCE2 (procollagen C-endopeptidase enhancer 2) #1 the results were G2 robust z-score 0.454; G2 cells, % of GMNN control 6.16.
Depletion of PCOLCE2 (procollagen C-endopeptidase enhancer 2) #2 came out at: G2 robust z-score 0.9; G2 cells, % of GMNN control 9.3.
Knock-down of PCOLCE2 (procollagen C-endopeptidase enhancer 2) #3 came out at: G2 robust z-score -0.48; G2 cells, % of GMNN control -0.407.
KRTAP19-4 (keratin associated protein 19-4) #1 scored G2 robust z-score 0.488; G2 cells, % of GMNN control 6.4.
Knock-down of KRTAP19-4 (keratin associated protein 19-4) #2 gave: G2 robust z-score 3.42; G2 cells, % of GMNN control 27.1.
Against KRTAP19-4 (keratin associated protein 19-4) #3 the deposit lists G2 robust z-score 0.794; G2 cells, % of GMNN control 8.55.
Knock-down of CILP (cartilage intermediate layer protein) #1 resulted in: G2 robust z-score -0.0416; G2 cells, % of GMNN control 2.67.
Knock-down of CILP (cartilage intermediate layer protein) #2 came out at: G2 robust z-score -0.000988; G2 cells, % of GMNN control 2.96.
After knock-down of CILP (cartilage intermediate layer protein) #3, the record shows G2 robust z-score -1.04; G2 cells, % of GMNN control -4.34.
FAM184B (family with sequence similarity 184 member B) #1 scored G2 robust z-score -1.12; G2 cells, % of GMNN control -4.94.
Knock-down of FAM184B (family with sequence similarity 184 member B) #2 gave: G2 robust z-score 1.1; G2 cells, % of GMNN control 10.7.
Knock-down of FAM184B (family with sequence similarity 184 member B) #3 came out at: G2 robust z-score 0.26; G2 cells, % of GMNN control 4.8.
Against ZBTB39 (zinc finger and BTB domain containing 39) #1, the values are G2 robust z-score -0.867; G2 cells, % of GMNN control -3.13.
With knock-down of ZBTB39 (zinc finger and BTB domain containing 39) #2, the screen gave G2 robust z-score -1.31; G2 cells, % of GMNN control -6.22.
After knock-down of ZBTB39 (zinc finger and BTB domain containing 39) #3, the screen gave G2 robust z-score -1; G2 cells, % of GMNN control -4.1.
Against LUZP4 (leucine zipper protein 4) #1 the deposit lists G2 robust z-score -0.871; G2 cells, % of GMNN control -3.16.
After knock-down of LUZP4 (leucine zipper protein 4) #2, the record shows G2 robust z-score 0.203; G2 cells, % of GMNN control 4.4.
With knock-down of LUZP4 (leucine zipper protein 4) #3, the record shows G2 robust z-score -0.555; G2 cells, % of GMNN control -0.935.
Knock-down of RYR3 (ryanodine receptor 3) #1 gave: G2 robust z-score 0.987; G2 cells, % of GMNN control 9.91.
With knock-down of RYR3 (ryanodine receptor 3) #2, the record shows G2 robust z-score -0.522; G2 cells, % of GMNN control -0.703.
Silencing of RYR3 (ryanodine receptor 3) #3 resulted in: G2 robust z-score -0.721; G2 cells, % of GMNN control -2.1.

4 entries from above, arranged by “G2 cells, % of GMNN control”, high to low.
RYR3 (ryanodine receptor 3) #1 — G2 robust z-score = 0.987; G2 cells, % of GMNN control = 9.91
LUZP4 (leucine zipper protein 4) #2 — G2 robust z-score = 0.203; G2 cells, % of GMNN control = 4.4
RYR3 (ryanodine receptor 3) #2 — G2 robust z-score = -0.522; G2 cells, % of GMNN control = -0.703
LUZP4 (leucine zipper protein 4) #3 — G2 robust z-score = -0.555; G2 cells, % of GMNN control = -0.935
